In US10519339B2, “Method for applying a coating to a polymeric substrate” (Sophion Bioscience A/S, priority 2012, dated 2019):

Settings: 5 h, 100 nM

initial drug remaining in solution: less than 3%
Compound: CCCCc1oc2ccccc2c1C(=O)c1cc(I)c(OCCN(CC)CC)c(I)c1 [amiodarone]
